Test [1] has as its target T1, ETTIN (ETT)/ARF3 fused to the GAL4 DNA-binding domain (ETT-BD) (Arabidopsis) (UniProt O23661).
T1 sequence: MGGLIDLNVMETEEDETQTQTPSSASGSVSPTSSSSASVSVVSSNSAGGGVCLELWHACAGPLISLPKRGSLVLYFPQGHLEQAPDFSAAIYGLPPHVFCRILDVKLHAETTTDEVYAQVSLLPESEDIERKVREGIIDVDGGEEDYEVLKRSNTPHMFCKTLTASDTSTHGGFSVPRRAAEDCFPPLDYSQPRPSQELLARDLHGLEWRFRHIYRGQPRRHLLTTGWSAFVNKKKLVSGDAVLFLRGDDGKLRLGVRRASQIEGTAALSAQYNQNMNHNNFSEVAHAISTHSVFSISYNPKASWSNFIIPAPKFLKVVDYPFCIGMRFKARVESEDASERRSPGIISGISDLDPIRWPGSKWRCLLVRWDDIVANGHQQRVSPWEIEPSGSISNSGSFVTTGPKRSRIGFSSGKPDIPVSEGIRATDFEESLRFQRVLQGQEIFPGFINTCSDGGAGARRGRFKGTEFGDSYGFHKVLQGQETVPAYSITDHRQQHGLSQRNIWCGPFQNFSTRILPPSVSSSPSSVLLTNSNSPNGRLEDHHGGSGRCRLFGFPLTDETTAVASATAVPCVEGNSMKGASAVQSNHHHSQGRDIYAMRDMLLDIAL
Briefly: two-hybrid; yeast AH109, 28°C, cotransformation; YSD lacking Leu, Trp, adenine and His with 1, 2.5 and 5 mM 3-AT; no IAA (ETT-IND also with NAA or 2,4-D in the medium).

The chains behind the UniProt entries cited, without tags or fusion partners. Where a name states a change or a piece, a line headed by the entry shows the natural chain unless it says otherwise.
UniProt Q6PQQ3: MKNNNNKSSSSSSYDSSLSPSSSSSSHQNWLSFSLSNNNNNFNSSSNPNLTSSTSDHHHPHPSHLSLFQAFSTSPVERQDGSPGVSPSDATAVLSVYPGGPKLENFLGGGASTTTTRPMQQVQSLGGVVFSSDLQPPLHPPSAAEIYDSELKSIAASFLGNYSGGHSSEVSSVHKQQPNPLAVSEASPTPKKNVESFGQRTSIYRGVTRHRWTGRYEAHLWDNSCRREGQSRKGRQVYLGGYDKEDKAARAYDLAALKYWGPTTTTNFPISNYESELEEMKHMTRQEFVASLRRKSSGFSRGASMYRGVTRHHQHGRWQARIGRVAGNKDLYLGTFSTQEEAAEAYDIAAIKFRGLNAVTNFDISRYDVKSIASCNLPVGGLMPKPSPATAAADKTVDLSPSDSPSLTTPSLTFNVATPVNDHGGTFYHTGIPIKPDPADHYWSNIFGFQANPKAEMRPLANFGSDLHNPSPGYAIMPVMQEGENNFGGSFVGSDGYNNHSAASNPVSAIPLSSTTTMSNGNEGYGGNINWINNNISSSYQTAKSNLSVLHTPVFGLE

Test [2] addresses T1, ETTIN (ETT)/ARF3 fused to the GAL4 DNA-binding domain (ETT-BD) (Arabidopsis). The test can be described thus: two-hybrid; as a2, with IAA (dissolved in ethanol) added to the medium.

Results are given in words; binding and its absence hold for the method and conditions named. A result given as binding can be weak or reduced; the word gives no strength. Where a sequence is shown, tags or fusion partners need not be part of it.

In the case of “IND^D30G fused to the GAL4 activation domain (Arabidopsis)”, the binding result in test [1] and in test [2] was “binds” in each case.
As to “PLETHORA5 (PLT5) fused to the AD domain (from UniProt Q6PQQ3)”, in test [1], the binding result is given as “binds”.

The values are drawn from PMC5110995.
